The text below walks through data of the supplement of paper PMC6411743.

Sequences of proteins named here, by UniProt entry; tags and fusion partners are left off. A change or cut given only in a name is not applied to a line headed by its entry.
UniProt Q9C0B5: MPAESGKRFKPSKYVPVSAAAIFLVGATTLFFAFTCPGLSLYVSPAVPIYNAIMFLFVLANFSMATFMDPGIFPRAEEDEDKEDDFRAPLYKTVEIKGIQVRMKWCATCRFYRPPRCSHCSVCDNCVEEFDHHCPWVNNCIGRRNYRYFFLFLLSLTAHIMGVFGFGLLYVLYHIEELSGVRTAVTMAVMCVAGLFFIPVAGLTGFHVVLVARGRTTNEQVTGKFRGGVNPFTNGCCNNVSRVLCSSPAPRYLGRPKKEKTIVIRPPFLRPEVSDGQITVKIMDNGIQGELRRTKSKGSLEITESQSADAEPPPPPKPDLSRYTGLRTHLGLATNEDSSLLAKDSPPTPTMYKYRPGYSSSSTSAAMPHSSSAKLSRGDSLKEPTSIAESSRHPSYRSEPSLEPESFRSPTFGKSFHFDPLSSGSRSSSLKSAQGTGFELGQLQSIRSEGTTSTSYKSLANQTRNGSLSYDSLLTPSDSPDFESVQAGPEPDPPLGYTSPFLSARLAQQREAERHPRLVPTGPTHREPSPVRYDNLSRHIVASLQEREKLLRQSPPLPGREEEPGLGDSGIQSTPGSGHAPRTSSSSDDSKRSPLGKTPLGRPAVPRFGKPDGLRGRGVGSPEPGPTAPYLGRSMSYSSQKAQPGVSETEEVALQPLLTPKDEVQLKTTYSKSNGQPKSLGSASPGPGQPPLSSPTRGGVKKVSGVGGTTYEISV
UniProt Q9HCN4, whole entry: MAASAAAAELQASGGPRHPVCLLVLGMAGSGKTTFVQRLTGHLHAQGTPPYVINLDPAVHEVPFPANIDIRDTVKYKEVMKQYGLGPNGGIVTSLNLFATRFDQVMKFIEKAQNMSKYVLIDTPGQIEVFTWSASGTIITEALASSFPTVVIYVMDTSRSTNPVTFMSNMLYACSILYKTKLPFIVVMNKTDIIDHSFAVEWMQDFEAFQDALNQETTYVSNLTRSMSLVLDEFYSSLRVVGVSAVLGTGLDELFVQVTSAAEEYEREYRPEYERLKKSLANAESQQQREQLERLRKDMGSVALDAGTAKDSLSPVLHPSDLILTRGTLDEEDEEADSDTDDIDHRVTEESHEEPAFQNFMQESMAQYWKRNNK
UniProt Q9H3K6: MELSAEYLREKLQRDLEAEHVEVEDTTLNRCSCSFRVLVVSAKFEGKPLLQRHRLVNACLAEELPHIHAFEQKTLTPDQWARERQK
UniProt Q9HB21: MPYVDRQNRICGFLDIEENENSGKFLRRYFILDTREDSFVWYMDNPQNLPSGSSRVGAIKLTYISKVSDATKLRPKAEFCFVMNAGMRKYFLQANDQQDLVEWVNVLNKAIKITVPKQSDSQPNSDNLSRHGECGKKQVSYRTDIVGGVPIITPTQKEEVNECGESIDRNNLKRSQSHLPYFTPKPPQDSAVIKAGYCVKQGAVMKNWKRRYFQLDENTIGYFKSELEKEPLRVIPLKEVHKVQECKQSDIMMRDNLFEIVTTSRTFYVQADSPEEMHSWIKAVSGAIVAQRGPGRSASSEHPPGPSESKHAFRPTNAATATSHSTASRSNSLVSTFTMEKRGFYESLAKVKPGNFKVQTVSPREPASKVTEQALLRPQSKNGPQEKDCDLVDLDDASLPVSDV
UniProt Q9H0B6: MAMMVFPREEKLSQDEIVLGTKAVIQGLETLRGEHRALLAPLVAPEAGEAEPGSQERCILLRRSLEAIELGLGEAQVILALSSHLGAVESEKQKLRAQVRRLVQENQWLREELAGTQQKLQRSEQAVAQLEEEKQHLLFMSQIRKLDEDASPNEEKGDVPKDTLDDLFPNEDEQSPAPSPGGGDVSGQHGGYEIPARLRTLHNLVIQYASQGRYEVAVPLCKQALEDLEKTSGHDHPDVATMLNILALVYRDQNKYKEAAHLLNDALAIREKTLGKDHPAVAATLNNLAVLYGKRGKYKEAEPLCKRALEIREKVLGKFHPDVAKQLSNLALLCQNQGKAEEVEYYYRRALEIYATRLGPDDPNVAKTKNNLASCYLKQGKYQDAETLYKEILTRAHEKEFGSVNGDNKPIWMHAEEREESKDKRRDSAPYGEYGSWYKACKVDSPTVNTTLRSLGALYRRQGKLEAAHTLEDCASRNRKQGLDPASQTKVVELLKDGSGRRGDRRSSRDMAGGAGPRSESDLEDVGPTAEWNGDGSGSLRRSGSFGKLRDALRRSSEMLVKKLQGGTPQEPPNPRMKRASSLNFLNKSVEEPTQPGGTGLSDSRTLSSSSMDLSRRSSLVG

Compound in this assay: Nc1nc2c(ncn2[C@@H]2O[C@H](COP(=O)(O)OP(=O)(O)OP(=O)(O)O)[C@@H](O)[C@H]2O)c(=O)[nH]1 [guanosine triphosphate]
Kind of assay: NP40-soluble protein abundance relative to vehicle (solubility fold change) (ratio); higher = more soluble protein in presence of GTP. The protocol:
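Solubility proteome profiling in Jurkat crude lysate. Lysate was treated with Mg-GTP (0.1-10 mM) for 10 min at room temperature and 3 min at 37 °C, then solubilised with 0.8% NP40 and benzonase, followed by ultracentrifugation. Proteins were quantified by TMT10 LC-MS/MS; the value is the NP40-soluble abundance relative to the NP40-processed vehicle, from 3 independent experiments.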

± gives the standard deviation of the averaged measurements. Some of the results follow.

As for UniProt Q9C0B5 and related entries, the NP40-soluble protein abundance is, setting by setting: (concentration: 0.1mM) 1.02 ± 0.049; (concentration: 0.5mM) 0.949 ± 0.024; (concentration: 1mM) 0.96 ± 0.018; (concentration: 2mM) 0.938 ± 0.012; (concentration: 4mM) 0.903 ± 0.018; (concentration: 6mM) 0.909 ± 0.019. For the same target, the NP40-soluble protein abundance (concentration: 8mM) worked out at 1.02 ± 0.03 and the NP40-soluble protein abundance (concentration: 10mM) turned out to be 0.997 ± 0.029.
On to UniProt Q9HCN4 and related entries, for which the NP40-soluble protein abundance is, setting by setting: (concentration: 0.1mM) 0.963 ± 0.054; (concentration: 0.5mM) 1.01 ± 0.071; (concentration: 1mM) 0.983 ± 0.023; (concentration: 2mM) 0.983 ± 0.053; (concentration: 4mM) 0.97 ± 0.037; (concentration: 6mM) 0.972 ± 0.044. The NP40-soluble protein abundance reads like this: (concentration: 8mM) 0.942 ± 0.033; (concentration: 10mM) 0.962 ± 0.029.
Consider BOLA2 (UniProt Q9H3K6), for which the NP40-soluble protein abundance (concentration: 0.1mM) stood at 0.949 ± 0.085; the NP40-soluble protein abundance (concentration: 0.5mM) worked out at 0.85 ± 0.12; the NP40-soluble protein abundance (concentration: 1mM) stood at 0.972 ± 0.067; the NP40-soluble protein abundance (concentration: 2mM) was 0.857 ± 0.09; the NP40-soluble protein abundance (concentration: 4mM) turned out to be 0.97 ± 0.07; the NP40-soluble protein abundance (concentration: 6mM) turned out to be 0.848 ± 0.072. The NP40-soluble protein abundance was 0.927 ± 0.11 (concentration: 8mM) and 0.855 ± 0.071 (concentration: 10mM).
On to PLEKHA1 (UniProt Q9HB21), for which the NP40-soluble protein abundance by setting is: (concentration: 0.1mM) 1.02 ± 0.021; (concentration: 0.5mM) 1.02 ± 0.033; (concentration: 1mM) 0.946 ± 0.024; (concentration: 2mM) 0.976 ± 0.045; (concentration: 4mM) 0.942 ± 0.022; (concentration: 6mM) 0.971 ± 0.011. Besides, the NP40-soluble protein abundance (concentration: 8mM) was 0.923 ± 0.036 and the NP40-soluble protein abundance (concentration: 10mM) turned out to be 0.916 ± 0.076.
For the target KLC2 (UniProt Q9H0B6), the NP40-soluble protein abundance was found to be 0.998 ± 0.011 (concentration: 0.1mM); 0.934 ± 0.044 (concentration: 0.5mM); 0.997 ± 0.056 (concentration: 1mM); 0.961 ± 0.083 (concentration: 2mM); 0.954 ± 0.067 (concentration: 4mM); 0.955 ± 0.062 (concentration: 6mM). For the same target, the NP40-soluble protein abundance worked out at 0.977 ± 0.029 (concentration: 8mM) and 0.993 ± 0.096 (concentration: 10mM).
